Experimental data taken from US7026293B2, “Treatment or prophylaxis of ischemic heart disease” (Daiichi Suntory Pharma Co., Ltd., priority 2000, dated 2006).
Part of at least one peptide drawing is inferred or uncertain, most often the ends.

Test system: models of acute myocardial infarction involving ischemia reperfusion
Format: in vivo, adult beagles
Conditions: hANP 0.1 μg/kg/min into the LAD, 10 min before ischemia and for 1 hour from 10 min before reperfusion; 90 min ischemia, 6 hours of reperfusion; control group 41±3%

CC[C@H](C)[C@@H]1NC(=O)[C@H](CCCNC(=N)N)NC(=O)[C@H](CC(=O)O)NC(=O)[C@H](CCSC)NC(=O)[C@H](CCCNC(=N)N)NC(=O)CNC(=O)CNC(=O)[C@H](Cc2ccccc2)NC(=O)[C@@H](NC(=O)[C@H](CO)NC(=O)[C@H](CO)NC(=O)[C@H](CCCNC(=N)N)NC(=O)[C@H](CCCNC(=N)N)NC(=O)[C@H](CC(C)C)NC(=O)[C@@H](N)CO)CSSC[C@@H](C(=O)N[C@@H](CC(N)=O)C(=O)N[C@@H](CO)C(=O)N[C@@H](Cc2ccccc2)C(=O)N[C@@H](CCCNC(=N)N)C(=O)N[C@@H](Cc2ccc(O)cc2)C(=O)O)NC(=O)CNC(=O)[C@H](CC(C)C)NC(=O)CNC(=O)[C@H](CO)NC(=O)[C@H](CCC(N)=O)NC(=O)[C@H](C)NC(=O)CNC1=O [hANP]
region of myocardial infarction as ratio of the region at risk of myocardial infarction (TTC staining / Evans blue staining): 21±5%
